# According to paper PMC9927466:
# Sequences of proteins named here, by UniProt entry; tags and fusion partners are left off.
# UniProt P51149: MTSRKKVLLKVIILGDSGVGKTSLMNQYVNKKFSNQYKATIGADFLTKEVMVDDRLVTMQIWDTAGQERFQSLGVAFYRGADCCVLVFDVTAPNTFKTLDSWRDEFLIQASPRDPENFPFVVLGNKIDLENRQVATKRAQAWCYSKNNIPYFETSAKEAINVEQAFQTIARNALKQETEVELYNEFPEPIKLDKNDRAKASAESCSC
# UniProt Q9NP72: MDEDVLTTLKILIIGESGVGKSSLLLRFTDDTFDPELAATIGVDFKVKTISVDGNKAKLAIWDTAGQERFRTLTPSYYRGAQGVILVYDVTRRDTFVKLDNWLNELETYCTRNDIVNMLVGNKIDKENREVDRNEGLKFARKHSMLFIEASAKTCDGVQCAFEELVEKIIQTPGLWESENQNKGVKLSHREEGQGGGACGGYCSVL
# UniProt Q9UL25: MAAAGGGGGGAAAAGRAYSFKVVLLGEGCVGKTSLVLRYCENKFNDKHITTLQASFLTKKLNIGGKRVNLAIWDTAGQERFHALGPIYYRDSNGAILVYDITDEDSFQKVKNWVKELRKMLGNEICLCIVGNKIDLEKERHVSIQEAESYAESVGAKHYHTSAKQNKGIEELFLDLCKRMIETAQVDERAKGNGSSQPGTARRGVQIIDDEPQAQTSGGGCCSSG
# No constants are given. Whether binding was seen depends on the method and setting. Binding seen in cells or lysates may run through a third protein. Here binding means that the protein was enriched with, or labelled near, the bait; the list need not be complete. Tags and fused reporters may be left off the sequences shown.
# B1: Rab13, endogenous in TW01-EBV cells (protein, UniProt P51153 1-203)
# chain: MAKAYDHLFKLLLIGDSGVGKTCLIIRFAEDNFNNTYISTIGIDFKIRTVDIEGKKIKLQVWDTAGQERFKTITTAYYRGAMGIILVYDITDEKSFENIQNWMKSIKENASAGVERLLLGNKCDMEAKRKVQKEQADKLAREHGIRFFETSAKSSMNVDEAFSSLARDILLKSGGRRSGNGNKPPSTDLKTCDKKNTNKCSLG
# Biological target: T1, Flag-BALF2 expressed in Rta-reactivated TW01-EBV cells (Epstein-Barr virus (B95-8 strain)) (UniProt P03227)
# T1 sequence: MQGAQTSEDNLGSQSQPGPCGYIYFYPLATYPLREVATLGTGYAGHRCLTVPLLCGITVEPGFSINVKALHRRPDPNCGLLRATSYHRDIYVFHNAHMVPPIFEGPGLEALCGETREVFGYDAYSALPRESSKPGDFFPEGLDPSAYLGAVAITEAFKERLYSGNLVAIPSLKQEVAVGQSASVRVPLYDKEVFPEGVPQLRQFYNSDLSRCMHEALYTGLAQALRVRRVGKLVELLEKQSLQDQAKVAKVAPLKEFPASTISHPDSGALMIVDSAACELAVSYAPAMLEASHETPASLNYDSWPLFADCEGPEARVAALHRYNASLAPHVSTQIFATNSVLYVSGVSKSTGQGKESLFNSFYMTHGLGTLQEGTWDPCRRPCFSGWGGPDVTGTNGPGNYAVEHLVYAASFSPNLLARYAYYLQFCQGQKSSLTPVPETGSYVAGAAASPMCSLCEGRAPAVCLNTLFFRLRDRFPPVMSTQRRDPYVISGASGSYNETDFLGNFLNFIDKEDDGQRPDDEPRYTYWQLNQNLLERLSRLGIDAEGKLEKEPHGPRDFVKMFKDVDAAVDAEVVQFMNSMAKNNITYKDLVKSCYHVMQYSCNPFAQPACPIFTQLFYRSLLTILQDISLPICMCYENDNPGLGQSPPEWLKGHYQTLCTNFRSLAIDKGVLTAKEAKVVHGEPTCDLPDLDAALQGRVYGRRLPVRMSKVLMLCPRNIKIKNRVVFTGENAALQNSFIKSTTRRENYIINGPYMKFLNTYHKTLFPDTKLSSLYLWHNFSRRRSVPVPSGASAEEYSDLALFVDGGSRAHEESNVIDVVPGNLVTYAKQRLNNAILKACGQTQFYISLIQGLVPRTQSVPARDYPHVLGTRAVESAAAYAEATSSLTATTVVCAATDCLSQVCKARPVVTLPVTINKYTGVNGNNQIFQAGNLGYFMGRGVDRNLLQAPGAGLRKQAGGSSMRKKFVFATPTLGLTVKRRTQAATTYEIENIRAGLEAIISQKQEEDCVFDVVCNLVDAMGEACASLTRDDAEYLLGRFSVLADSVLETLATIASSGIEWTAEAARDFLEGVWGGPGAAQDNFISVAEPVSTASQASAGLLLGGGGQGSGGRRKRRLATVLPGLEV
# Test: affinity purification with mass spectrometry
row,Molecule,binding
1,BBLF2/BBLF3 (viral primase-associated factor),binds
2,BXRF1,binds
3,LF3,binds
4,"Rab7A, endogenous in TW01-EBV cells (from UniProt P51149 1-207)",binds
5,"Rab18, endogenous in TW01-EBV cells (from UniProt Q9NP72 1-206)",binds
6,"Rab21, endogenous in TW01-EBV cells (from UniProt Q9UL25 1-225)",binds

# Biological target: T1, Flag-BALF2 expressed in Rta-reactivated TW01-EBV cells (Epstein-Barr virus (B95-8 strain))
# Test: affinity purification with mass spectrometry
# Remark: another data set of the same source
row,Molecule,binding
1,B1,binds
